Results are given in words; binding and its absence hold for the method and conditions named. Binding seen in cells or lysates may run through a third protein. Some binding calls cover weakened binding; strength is not graded here.
Biological target: embryonic ectoderm development (EED) (human (endogenous in K562)) (UniProt O75530)
Experiment: co-IP; immunoprecipitation (Figure S1); cells, bait and antibody not told in the text shown

The chains behind the UniProt entries cited, without tags or fusion partners.
UniProt O75530: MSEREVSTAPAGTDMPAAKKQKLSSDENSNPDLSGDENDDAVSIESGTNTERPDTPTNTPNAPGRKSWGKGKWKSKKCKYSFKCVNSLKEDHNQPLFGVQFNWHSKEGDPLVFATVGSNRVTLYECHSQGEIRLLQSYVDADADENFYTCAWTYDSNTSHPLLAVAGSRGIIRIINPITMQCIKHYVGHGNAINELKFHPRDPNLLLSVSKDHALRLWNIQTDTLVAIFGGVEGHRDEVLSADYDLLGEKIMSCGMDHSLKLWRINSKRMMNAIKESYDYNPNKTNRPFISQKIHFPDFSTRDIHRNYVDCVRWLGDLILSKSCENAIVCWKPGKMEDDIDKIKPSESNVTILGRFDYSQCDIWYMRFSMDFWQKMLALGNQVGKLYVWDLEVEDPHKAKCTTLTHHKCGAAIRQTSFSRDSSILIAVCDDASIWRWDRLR
UniProt P35226: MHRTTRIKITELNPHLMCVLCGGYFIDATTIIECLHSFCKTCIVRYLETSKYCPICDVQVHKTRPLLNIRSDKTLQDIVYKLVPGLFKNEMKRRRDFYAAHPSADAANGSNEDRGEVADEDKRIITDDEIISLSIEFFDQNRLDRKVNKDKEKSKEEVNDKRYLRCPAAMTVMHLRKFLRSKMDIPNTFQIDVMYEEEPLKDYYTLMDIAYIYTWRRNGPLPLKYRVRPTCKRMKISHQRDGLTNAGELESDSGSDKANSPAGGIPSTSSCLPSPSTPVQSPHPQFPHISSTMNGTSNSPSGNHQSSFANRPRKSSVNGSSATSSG
UniProt Q99496: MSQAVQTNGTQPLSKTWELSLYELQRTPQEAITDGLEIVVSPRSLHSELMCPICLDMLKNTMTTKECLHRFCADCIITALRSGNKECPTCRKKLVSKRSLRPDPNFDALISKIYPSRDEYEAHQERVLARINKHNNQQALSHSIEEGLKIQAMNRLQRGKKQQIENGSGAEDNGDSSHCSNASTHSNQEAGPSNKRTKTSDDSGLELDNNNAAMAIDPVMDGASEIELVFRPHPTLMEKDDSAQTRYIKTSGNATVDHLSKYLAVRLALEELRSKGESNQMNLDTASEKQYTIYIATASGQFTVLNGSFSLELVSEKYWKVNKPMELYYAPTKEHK

Row | Substance | binding
1 | B cell-specific Moloney murine leukemia virus integration site 1 (BMI1) (from UniProt P35226 1-326) | binds
2 | really interesting new gene 1B (RING1B) (from UniProt Q99496 1-336) | binds
